In the supplement of paper PMC11732987, “Enantioselective OTUD7B fragment discovery through chemoproteomics screening and high-throughput optimisation” (Communications Chemistry, 2025):
The list shows a part of the results. The data scatter; read single values as rough.

The chains behind the UniProt entries cited, without tags or fusion partners. Where a name states a change or a piece, a line headed by the entry shows the natural chain unless it says otherwise. Residues count along the entry.
UniProt Q9BSJ5, 164-187: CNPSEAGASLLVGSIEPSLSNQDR
UniProt O43683: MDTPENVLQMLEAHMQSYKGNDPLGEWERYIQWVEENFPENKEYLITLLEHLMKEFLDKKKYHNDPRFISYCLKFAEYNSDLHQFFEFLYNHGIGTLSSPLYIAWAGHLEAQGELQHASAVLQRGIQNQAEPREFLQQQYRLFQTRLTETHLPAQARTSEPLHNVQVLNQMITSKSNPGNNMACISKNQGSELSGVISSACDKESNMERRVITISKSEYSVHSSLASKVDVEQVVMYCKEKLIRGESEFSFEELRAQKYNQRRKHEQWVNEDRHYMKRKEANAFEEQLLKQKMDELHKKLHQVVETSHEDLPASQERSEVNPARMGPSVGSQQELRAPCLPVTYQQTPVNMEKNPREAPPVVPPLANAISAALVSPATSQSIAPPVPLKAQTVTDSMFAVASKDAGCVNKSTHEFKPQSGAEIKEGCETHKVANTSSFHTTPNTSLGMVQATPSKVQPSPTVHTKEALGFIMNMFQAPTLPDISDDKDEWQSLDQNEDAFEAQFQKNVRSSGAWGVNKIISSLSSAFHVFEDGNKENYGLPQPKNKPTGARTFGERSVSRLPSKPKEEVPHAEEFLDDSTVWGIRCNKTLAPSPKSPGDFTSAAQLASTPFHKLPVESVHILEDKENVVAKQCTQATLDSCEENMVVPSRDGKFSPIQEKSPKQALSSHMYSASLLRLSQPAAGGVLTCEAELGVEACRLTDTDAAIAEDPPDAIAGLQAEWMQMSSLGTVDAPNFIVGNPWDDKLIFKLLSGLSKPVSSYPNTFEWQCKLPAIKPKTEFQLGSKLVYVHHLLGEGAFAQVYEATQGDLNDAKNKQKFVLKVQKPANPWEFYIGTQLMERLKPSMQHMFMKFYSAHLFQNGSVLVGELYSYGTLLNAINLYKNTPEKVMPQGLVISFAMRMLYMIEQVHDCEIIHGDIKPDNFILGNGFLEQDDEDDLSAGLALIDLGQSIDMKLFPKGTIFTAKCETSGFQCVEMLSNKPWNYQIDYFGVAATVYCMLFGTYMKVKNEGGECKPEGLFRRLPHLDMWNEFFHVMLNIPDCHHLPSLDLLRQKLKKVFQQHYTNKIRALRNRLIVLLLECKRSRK
UniProt Q13555: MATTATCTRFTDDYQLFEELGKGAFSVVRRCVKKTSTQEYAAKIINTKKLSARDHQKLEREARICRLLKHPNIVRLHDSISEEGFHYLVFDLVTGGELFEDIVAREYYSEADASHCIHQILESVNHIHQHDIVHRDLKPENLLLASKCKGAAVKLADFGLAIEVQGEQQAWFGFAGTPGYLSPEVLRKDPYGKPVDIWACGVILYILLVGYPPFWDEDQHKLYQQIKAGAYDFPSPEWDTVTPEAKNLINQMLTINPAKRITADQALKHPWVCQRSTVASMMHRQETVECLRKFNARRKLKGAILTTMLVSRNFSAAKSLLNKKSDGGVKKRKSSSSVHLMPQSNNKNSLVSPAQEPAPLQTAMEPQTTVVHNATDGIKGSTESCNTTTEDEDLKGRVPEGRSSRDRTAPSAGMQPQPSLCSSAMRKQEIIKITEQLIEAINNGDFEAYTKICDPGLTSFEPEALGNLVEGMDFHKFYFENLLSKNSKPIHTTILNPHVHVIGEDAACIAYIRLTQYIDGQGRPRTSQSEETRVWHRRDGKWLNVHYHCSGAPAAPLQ
UniProt Q53S33: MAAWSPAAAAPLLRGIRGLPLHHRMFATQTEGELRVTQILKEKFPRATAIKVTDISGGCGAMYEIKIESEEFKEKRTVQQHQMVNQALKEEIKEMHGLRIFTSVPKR
UniProt Q5T5Y3: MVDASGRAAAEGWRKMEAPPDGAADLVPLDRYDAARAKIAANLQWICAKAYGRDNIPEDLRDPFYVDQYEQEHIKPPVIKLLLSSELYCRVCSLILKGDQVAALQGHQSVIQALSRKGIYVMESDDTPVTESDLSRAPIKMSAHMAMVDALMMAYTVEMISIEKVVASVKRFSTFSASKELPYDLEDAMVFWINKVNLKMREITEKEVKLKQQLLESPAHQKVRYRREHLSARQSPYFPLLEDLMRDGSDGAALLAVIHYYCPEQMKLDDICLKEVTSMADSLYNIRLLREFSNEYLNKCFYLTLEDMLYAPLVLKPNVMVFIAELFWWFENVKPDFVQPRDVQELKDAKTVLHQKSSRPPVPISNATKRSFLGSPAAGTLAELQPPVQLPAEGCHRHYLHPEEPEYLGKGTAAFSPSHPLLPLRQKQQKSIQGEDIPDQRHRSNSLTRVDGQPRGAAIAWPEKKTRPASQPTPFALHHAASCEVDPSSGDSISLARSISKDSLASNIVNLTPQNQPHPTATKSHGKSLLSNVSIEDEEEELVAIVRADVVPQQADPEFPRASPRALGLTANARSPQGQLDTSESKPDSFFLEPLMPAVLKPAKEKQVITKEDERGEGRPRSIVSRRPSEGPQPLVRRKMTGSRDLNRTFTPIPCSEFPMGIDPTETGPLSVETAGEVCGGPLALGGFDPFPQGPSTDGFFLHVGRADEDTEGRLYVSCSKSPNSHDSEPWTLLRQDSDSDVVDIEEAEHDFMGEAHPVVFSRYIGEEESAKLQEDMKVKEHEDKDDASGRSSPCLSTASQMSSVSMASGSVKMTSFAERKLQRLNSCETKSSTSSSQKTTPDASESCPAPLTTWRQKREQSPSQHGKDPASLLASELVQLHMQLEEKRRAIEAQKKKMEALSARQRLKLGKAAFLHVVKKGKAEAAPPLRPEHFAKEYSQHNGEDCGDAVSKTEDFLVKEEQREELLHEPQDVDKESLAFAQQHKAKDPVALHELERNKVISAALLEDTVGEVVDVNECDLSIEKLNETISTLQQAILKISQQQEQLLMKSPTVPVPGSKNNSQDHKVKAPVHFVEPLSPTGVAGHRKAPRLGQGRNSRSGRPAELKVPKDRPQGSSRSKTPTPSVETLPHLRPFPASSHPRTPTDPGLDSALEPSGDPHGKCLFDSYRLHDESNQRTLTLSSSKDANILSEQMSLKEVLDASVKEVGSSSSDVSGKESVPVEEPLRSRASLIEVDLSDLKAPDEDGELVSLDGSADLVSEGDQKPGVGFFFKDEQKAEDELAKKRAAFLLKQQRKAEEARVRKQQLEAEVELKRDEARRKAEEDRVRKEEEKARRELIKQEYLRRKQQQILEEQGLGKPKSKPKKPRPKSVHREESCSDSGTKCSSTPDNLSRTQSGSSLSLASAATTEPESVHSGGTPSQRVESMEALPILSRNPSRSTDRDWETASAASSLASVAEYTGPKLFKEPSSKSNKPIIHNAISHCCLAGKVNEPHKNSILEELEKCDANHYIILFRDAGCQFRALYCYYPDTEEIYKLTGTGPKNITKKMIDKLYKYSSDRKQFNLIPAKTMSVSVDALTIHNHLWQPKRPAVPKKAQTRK
UniProt O14981: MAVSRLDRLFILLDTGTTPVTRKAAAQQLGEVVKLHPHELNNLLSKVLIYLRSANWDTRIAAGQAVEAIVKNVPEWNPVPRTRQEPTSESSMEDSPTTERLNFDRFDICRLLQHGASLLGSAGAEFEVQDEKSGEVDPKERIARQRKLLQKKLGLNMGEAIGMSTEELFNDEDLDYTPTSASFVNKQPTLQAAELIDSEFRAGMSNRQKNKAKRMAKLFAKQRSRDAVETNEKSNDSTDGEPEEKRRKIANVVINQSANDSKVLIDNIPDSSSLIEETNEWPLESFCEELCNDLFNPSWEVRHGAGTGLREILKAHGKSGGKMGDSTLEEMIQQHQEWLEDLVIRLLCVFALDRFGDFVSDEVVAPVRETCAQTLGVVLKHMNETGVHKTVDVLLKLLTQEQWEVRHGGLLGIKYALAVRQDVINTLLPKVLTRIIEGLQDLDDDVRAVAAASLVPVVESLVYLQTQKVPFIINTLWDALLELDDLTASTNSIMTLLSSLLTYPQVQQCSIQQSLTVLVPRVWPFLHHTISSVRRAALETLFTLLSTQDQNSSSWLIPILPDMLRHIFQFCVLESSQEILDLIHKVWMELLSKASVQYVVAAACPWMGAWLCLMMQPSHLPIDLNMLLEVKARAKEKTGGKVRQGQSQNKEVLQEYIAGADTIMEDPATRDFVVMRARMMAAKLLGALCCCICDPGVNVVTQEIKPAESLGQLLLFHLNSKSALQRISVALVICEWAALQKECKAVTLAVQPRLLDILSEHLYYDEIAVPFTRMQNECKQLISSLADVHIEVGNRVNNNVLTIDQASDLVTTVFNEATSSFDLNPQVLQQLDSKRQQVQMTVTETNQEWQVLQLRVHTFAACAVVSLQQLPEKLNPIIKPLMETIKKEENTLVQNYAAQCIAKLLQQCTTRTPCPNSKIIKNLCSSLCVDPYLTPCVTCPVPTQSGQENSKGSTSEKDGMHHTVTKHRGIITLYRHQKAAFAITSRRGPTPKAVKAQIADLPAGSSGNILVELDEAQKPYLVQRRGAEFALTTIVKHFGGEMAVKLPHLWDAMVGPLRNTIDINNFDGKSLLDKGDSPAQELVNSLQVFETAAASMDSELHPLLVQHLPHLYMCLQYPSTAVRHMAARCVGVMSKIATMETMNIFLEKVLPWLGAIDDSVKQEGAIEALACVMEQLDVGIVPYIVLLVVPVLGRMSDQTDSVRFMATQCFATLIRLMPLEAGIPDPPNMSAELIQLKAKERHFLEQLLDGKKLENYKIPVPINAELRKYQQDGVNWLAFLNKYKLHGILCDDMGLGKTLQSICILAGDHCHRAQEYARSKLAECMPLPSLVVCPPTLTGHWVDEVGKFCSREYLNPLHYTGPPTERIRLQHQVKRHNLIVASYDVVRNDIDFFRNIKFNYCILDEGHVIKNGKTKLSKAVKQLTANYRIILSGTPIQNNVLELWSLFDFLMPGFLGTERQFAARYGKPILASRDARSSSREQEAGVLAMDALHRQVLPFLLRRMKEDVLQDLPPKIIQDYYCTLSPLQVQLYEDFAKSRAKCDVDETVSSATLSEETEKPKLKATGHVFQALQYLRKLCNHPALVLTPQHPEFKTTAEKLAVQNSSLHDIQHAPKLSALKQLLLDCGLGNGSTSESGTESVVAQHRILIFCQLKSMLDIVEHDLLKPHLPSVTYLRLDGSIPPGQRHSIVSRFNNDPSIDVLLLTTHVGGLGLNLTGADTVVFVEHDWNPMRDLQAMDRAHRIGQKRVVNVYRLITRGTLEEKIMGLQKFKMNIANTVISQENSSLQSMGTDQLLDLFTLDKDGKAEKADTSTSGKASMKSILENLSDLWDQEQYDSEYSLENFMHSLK
UniProt Q9H7E9, 2-24: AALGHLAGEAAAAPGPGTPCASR
UniProt O14523, 356-381: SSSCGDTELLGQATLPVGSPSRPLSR
UniProt O75155, 112-132: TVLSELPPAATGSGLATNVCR
UniProt O75808, 121-144: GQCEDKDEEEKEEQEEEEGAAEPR
UniProt P17655, 391-414: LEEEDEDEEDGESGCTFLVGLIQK
UniProt Q8NFC6, 1547-1570: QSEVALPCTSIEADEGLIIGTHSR
UniProt Q6PGQ7, whole entry, looked up: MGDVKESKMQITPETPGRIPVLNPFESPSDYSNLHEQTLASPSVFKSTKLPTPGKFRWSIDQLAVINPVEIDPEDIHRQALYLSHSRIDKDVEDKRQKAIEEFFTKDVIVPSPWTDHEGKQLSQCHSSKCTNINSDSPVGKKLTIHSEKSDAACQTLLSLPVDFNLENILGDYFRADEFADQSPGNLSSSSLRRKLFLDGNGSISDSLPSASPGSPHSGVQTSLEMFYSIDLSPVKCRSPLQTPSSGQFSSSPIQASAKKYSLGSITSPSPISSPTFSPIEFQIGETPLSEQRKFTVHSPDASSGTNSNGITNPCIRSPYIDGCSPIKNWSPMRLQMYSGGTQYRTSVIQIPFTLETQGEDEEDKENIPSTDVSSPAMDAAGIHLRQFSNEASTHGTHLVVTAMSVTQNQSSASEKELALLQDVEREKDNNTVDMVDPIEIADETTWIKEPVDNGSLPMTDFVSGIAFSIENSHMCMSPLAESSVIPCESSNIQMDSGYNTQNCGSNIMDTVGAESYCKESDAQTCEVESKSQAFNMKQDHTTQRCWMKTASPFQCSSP
UniProt Q9H8M2: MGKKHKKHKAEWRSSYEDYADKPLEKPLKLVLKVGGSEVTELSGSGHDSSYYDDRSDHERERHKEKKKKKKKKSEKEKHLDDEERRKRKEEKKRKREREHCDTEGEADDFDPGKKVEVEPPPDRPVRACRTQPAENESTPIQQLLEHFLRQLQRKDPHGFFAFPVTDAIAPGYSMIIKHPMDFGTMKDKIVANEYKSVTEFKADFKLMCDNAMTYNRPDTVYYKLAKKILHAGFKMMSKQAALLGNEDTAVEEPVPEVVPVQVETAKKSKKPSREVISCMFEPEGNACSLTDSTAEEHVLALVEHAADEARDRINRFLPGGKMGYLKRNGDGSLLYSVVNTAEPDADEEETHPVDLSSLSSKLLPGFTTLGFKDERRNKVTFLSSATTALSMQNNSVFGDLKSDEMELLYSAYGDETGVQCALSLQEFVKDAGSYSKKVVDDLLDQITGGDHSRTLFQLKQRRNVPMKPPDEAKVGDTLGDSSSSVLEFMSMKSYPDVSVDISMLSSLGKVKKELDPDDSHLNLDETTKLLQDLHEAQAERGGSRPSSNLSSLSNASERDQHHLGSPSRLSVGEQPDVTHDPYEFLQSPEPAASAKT

Assays:
[1] = compound: ClCC(=O)N[C@@H]1CCCc2ccccc12; test: log2 mean competition ratio of IA-DTB cysteine labelling (DMSO/compound) (log2 ratio); higher = stronger cysteine engagement by compound; conditions: treatment time: 4 h, cell line lysate: HEK293T
Procedure: (§1)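 IA-DTB competitive cysteine chemoproteomics in HEK293T RIPA lysate. Lysates were treated with compound 29 or 30 at 50 or 200 µM for 4 h, then IA-DTB (500 µM, 1 h), trypsin-digested, NeutrAvidin-enriched and analysed by diaPASEF. Competition ratio = intensity DMSO / intensity compound (n=4 treated, n=64 DMSO); binding: mean log2 CR ≥ 1 and p ≤ 0.05 plus QC filters. Target is the cysteine site.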

[2] = compound: ClCC(=O)N[C@H]1CCCc2ccccc12; test: as above; conditions: treatment time: 4 h, cell line lysate: HEK293T
Procedure: as §1

| Target | log2 mean competition ratio ([1]; 50 µM) | log2 mean competition ratio ([1]; 200 µM) | log2 mean competition ratio ([2]; 50 µM) | log2 mean competition ratio ([2]; 200 µM) |
| --- | --- | --- | --- | --- |
| C17orf80 C164 (UniProt Q9BSJ5) | -0.0801 | -0.295 | 0.287 | 0.0185 |
| BUB1 C184 (UniProt O43683) | 0.0945 | 0.16 | 0.17 | 0.181 |
| CAPZB C8 (UniProt P47756) | -0.413 | -0.797 | 0.111 | 0.401 |
| C1orf50 C110 (UniProt Q9BV19) | 0.342 | 0.0208 | -0.119 | -0.162 |
| CAMK2G C7 (UniProt Q13555) | 0.0482 | 0.147 | 0.205 | 0.324 |
| CASK C633 (UniProt O14936) | -0.106 | 0.137 | -0.1 | 0.0514 |
| CAMSAP2 C1032 (UniProt Q08AD1) | 0.124 | -0.0923 | 0.0488 | -0.0176 |
| CARMIL1 C1106 | 0.0789 | 0.156 | -0.00298 | 0.48 |
| BOLA3 C59 (UniProt Q53S33) | -0.176 | 0.0135 | 0.116 | -0.072 |
| BPGM C23 (UniProt P07738) | -0.142 | -0.206 | -0.228 | -0.0159 |
| BRPF1 C570 | -0.00596 | 0.151 | -0.0535 | 0.0391 |
| CAMSAP1 C1386 (UniProt Q5T5Y3) | 0.294 | 0.399 | 0.104 | 0.318 |
| BTAF1 C908 (UniProt O14981) | 0.0954 | 0.0756 | 0.11 | 0.0623 |
| C8orf33 C21 (UniProt Q9H7E9) | -0.115 | -0.108 | 0.0886 | 0.141 |
| CARMIL1 C464 | -0.127 | 0.0989 | -0.33 | 0.209 |
| CADPS2 C639 | 0.155 | 0.21 | -0.101 | 0.271 |
| CARS2 C526 (UniProt Q9HA77) | -0.0456 | 0.299 | -0.151 | 0.198 |
| CAST C408 (UniProt P20810) | 0.0493 | 0.308 | 0.0766 | 0.53 |
| BTD C380 (UniProt P43251) | -0.0959 | 0.211 | -0.279 | 0.128 |
| C2orf72 C244 | -0.0885 | 0.283 | 0.0734 | 0.189 |

| Target | log2 mean competition ratio ([1]; 50 µM) | log2 mean competition ratio ([1]; 200 µM) | log2 mean competition ratio ([2]; 50 µM) | log2 mean competition ratio ([2]; 200 µM) |
| --- | --- | --- | --- | --- |
| C2CD2L C359 (UniProt O14523) | 0.0279 | -0.22 | -0.281 | 0.0468 |
| BTAF1 C900 (UniProt O14981) | 0.0508 | -0.0216 | -0.0465 | -0.118 |
| CAND2 C959 (UniProt O75155) | -0.309 | -0.0496 | 0.0807 | 0.208 |
| CAMK2G C290 (UniProt Q13555) | -0.166 | -0.00251 | 0.24 | 0.0549 |
| C1orf112 C103 (UniProt Q9NSG2) | 0.00792 | -0.109 | 0.0368 | -0.109 |
| BRCA2 C916 (UniProt P51587) | -0.149 | 0.0125 | -0.457 | -0.0381 |
| BRCA1 C442 (UniProt P38398) | -0.218 | -0.0117 | -0.0374 | 0.0549 |
| C11orf96 C420 (UniProt Q7Z7L8) | -0.0135 | 0.138 | 0.418 | 0.462 |
| CAMSAP2 C1416 (UniProt Q08AD1) | -0.133 | -0.0566 | 0.329 | -0.28 |
| CBR1 C122 (UniProt P16152) | -0.214 | 0.0754 | -0.448 | 0.126 |
| BTAF1 C371 (UniProt O14981) | -0.0819 | -0.0628 | -0.565 | -0.103 |
| BPHL C234 (UniProt Q86WA6) | 0.0568 | -0.0574 | -0.699 | -0.25 |
| C19orf54 C186 (UniProt Q5BKX5) | -0.0261 | 0.0689 | -0.384 | -0.16 |
| BPTF C660 | -0.446 | 0.0707 | -0.45 | 0.078 |
| CAPN15 C123 (UniProt O75808) | -0.112 | -0.19 | -0.117 | -0.0234 |
| CAPN2 C405 (UniProt P17655) | -0.297 | 0.157 | -0.0915 | 0.334 |
| CAD C736 | -0.0101 | -0.0587 | 0.321 | -0.204 |
| BOD1L1 C2570 (UniProt Q8NFC6) | -0.0655 | 0.0652 | 0.0192 | 0.0817 |
| CAPN2 C301 (UniProt P17655) | 0.55 | -0.0911 | 0.861 | -0.138 |
| BPNT1 C243 | 0.358 | – | 0.182 | -0.0273 |

Single records, as listed above. Order of values: log2 mean competition ratio ([1]; 50 µM)	log2 mean competition ratio ([1]; 200 µM)	log2 mean competition ratio ([2]; 50 µM)	log2 mean competition ratio ([2]; 200 µM)
CAND2 C959 (UniProt O75155) is listed with -0.309	-0.0496	0.0807	0.208
BOD1L1 C2570 (UniProt Q8NFC6) is listed with -0.0655	0.0652	0.0192	0.0817

Further results.

| Target | log2 mean competition ratio ([1]; 50 µM) | log2 mean competition ratio ([1]; 200 µM) | log2 mean competition ratio ([2]; 50 µM) | log2 mean competition ratio ([2]; 200 µM) |
| --- | --- | --- | --- | --- |
| CAPN10 C130 | 0.0819 | – | -0.168 | 0.244 |
| BRAT1 C246 (UniProt Q6PJG6) | -0.0988 | 0.296 | 0.257 | 0.304 |
| BRCA1 C1103 (UniProt P38398) | -0.284 | 0.321 | -0.196 | 0.303 |
| BTD C371 (UniProt P43251) | -0.213 | 0.385 | -0.0744 | 0.215 |
| CAST C413 (UniProt P20810) | 0.0159 | -0.17 | 0.695 | 0.0558 |
| CAD C1455 | 0.189 | -0.0767 | -0.00633 | 0.0727 |
| BTBD10 C86 (UniProt Q9BSF8) | 0.0105 | -0.0853 | 0.449 | -0.03 |
| BPTF C1241 | 0.223 | 0.0451 | 0.00353 | 0.183 |
| CASP10 C43 (UniProt Q92851) | 0.225 | -0.103 | -0.344 | -0.00529 |
| BORA C324 (UniProt Q6PGQ7) | -0.271 | -0.141 | -0.2 | 0.196 |
| CABIN1 C571 (UniProt Q9Y6J0) | 0.114 | 0.258 | 0.16 | -0.0264 |
| CAND2 C131 (UniProt O75155) | 0.398 | 0.0288 | 0.65 | 0.33 |
| CASP8AP2 C1100 (UniProt Q9UKL3) | -0.237 | -0.55 | -0.0906 | -0.677 |
| C1GALT1 C232 (UniProt Q9NS00) | 0.0512 | 0.0987 | -0.231 | -0.252 |
| CAPN2 C577 (UniProt P17655) | -0.247 | -0.019 | 0.0215 | -0.0167 |
| BRD9 C101 (UniProt Q9H8M2) | -0.34 | 0.0129 | -0.358 | -0.325 |
| BOD1L1 C1554 (UniProt Q8NFC6) | -0.179 | -0.123 | -0.0258 | 0.0133 |
| BRIP1 C125 (UniProt Q9BX63) | -0.298 | 0.152 | -0.253 | -0.455 |
| BTBD2 C294 (UniProt Q9BX70) | -0.174 | 0.128 | -0.159 | -0.0472 |
